In paper PMC9289542:
These are yes or no findings as the source states them, for the method shown. Binding seen in cells or lysates may run through a third protein. These calls come from enrichment with a bait or labelling near it, and not all partners need be listed.

Amino acid sequences for entries named in this document (tags omitted). Residues count along the entry.
UniProt P15313: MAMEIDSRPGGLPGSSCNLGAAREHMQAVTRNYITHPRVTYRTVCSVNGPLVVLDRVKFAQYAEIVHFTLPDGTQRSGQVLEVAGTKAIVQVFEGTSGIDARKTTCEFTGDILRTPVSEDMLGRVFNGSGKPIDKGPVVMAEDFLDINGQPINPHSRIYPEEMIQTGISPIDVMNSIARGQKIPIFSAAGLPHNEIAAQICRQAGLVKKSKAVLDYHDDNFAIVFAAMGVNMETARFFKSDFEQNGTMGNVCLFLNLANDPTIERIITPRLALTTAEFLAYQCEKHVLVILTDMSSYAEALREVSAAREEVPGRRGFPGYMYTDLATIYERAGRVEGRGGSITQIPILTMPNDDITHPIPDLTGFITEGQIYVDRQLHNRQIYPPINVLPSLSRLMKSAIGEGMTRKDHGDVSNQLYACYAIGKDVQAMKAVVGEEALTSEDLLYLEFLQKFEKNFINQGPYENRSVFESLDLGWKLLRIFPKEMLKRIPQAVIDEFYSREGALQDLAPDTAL
UniProt P36543: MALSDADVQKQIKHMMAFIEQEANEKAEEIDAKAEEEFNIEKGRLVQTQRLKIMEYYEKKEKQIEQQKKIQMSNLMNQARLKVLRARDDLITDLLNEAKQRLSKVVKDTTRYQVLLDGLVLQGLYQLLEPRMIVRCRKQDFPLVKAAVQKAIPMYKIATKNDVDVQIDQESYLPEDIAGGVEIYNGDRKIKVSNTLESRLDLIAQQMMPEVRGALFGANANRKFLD
UniProt P27824, residues 21-592: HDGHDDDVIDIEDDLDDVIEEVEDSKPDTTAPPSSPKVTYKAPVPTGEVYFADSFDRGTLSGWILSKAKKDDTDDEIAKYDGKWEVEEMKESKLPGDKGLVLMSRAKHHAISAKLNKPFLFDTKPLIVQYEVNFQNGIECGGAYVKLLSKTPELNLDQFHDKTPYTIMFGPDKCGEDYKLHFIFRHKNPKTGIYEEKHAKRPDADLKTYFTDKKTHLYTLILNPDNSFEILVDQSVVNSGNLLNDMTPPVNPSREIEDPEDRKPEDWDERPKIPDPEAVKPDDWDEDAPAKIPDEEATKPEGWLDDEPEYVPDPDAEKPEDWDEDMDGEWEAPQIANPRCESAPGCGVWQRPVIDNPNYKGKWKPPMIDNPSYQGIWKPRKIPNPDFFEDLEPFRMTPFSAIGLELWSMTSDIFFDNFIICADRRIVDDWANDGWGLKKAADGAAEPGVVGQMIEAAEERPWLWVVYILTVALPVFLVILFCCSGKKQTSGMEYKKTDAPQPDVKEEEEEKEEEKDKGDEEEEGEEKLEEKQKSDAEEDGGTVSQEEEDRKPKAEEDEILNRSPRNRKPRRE
UniProt O60884: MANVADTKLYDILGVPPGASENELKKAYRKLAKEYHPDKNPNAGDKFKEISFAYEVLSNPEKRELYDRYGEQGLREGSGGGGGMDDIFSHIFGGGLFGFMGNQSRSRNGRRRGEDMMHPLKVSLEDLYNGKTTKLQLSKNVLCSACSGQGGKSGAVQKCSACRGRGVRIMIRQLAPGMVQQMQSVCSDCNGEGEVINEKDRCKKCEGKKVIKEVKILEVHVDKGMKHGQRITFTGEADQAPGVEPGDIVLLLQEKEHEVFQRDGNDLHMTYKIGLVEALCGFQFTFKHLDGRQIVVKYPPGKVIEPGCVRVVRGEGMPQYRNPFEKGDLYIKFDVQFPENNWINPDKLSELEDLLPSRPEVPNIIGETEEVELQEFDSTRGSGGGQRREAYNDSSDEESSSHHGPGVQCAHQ
UniProt P25685: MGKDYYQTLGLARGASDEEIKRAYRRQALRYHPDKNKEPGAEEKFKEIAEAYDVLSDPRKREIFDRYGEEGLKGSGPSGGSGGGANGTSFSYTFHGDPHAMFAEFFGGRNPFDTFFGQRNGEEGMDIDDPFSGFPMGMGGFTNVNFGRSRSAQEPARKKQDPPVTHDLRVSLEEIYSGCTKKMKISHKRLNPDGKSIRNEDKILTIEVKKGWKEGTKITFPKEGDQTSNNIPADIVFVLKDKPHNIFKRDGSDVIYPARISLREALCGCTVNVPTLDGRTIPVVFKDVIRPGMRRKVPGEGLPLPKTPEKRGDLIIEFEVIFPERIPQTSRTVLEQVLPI
UniProt O14556: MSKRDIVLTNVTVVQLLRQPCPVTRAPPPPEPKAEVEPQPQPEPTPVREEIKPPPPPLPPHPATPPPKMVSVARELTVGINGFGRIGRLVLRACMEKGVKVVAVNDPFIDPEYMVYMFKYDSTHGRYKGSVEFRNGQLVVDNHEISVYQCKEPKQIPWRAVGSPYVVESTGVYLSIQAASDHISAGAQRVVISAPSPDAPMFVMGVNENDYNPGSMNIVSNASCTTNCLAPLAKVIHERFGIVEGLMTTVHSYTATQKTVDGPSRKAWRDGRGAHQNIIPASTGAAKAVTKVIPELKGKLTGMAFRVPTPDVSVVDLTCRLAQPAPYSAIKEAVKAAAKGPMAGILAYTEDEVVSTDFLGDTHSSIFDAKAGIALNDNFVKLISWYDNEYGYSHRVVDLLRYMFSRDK
UniProt O95757: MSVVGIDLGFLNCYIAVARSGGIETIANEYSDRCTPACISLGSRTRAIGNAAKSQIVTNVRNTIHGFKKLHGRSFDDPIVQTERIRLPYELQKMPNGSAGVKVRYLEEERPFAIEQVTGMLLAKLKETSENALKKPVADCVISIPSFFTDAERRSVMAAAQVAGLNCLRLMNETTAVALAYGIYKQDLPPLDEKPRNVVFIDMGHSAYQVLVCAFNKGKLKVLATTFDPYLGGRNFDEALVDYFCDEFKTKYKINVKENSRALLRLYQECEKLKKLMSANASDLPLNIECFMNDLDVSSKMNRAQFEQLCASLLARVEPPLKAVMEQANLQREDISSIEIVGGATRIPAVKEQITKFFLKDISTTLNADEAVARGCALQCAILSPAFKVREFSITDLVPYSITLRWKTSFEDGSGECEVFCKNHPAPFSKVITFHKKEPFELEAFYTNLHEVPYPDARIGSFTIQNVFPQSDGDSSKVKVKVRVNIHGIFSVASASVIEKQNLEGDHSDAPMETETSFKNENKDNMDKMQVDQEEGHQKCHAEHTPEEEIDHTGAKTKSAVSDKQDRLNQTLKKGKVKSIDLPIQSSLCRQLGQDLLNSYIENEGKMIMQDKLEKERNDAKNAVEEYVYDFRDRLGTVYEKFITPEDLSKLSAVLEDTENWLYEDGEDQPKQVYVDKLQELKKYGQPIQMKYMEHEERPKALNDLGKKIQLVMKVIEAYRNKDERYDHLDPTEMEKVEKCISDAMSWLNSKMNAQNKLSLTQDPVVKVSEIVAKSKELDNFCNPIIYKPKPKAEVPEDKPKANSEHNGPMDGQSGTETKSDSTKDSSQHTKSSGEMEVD
UniProt P03891: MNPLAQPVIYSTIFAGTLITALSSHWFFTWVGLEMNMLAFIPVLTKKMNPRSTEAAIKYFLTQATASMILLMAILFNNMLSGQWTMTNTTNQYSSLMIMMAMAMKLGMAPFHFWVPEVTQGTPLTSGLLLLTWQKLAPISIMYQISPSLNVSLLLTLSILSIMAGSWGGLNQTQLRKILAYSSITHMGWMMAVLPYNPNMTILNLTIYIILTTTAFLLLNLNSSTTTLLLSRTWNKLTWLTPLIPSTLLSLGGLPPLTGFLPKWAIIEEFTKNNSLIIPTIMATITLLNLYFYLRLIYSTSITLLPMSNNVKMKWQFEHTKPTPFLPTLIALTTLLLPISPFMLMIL
UniProt P28331, residues 24-727: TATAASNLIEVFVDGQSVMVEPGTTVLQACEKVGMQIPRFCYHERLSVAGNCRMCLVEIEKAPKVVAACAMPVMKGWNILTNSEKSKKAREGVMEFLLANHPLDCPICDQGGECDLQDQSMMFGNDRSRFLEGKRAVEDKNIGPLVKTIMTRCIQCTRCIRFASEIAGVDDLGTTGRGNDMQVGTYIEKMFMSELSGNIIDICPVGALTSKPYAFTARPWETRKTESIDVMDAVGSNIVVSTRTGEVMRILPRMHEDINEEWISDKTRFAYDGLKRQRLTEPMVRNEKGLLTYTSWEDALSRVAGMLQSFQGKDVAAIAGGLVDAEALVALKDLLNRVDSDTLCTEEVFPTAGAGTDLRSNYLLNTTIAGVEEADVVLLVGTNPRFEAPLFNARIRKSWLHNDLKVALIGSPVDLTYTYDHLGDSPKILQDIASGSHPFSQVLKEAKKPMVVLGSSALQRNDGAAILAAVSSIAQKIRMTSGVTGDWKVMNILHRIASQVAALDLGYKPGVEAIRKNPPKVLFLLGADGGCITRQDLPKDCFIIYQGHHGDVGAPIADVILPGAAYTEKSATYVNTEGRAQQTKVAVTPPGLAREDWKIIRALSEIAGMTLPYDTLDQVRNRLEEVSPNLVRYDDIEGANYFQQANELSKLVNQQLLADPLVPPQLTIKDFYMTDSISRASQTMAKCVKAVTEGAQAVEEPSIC
UniProt P49821, residues 21-464: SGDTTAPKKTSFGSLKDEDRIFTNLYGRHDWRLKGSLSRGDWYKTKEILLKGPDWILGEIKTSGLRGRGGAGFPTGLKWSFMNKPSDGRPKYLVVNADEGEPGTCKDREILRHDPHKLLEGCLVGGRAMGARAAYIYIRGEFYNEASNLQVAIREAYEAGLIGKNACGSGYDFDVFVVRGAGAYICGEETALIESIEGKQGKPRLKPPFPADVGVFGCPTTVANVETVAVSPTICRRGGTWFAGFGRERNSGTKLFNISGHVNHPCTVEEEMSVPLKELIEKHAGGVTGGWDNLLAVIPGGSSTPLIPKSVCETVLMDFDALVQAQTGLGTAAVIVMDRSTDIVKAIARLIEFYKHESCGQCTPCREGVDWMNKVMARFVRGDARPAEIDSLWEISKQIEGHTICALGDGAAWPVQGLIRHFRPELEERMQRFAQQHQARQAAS
UniProt P07237, residues 18-508: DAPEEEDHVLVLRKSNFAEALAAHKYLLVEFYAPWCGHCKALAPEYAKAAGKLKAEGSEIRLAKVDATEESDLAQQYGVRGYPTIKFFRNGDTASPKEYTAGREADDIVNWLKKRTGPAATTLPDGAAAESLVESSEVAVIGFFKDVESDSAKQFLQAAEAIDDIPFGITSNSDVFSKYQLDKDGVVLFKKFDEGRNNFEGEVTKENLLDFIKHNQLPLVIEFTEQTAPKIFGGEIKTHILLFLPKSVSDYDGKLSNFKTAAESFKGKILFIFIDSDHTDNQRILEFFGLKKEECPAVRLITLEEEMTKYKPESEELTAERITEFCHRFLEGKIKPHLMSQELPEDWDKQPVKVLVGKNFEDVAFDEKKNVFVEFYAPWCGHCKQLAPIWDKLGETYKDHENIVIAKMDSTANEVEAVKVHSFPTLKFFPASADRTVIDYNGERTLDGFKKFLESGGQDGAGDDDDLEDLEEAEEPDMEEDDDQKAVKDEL
UniProt Q8NBS9, residues 33-432: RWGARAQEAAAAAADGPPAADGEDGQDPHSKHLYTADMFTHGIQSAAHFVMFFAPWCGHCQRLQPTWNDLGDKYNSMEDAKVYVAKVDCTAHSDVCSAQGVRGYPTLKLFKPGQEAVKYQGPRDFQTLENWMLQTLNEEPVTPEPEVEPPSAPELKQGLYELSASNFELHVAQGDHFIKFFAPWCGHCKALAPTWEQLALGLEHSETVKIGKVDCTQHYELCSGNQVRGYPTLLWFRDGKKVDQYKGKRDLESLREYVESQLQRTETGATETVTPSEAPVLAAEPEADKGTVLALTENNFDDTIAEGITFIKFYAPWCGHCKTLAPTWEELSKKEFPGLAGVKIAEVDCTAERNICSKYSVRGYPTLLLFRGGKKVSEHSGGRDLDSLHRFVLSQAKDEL

T1: protein disulfide isomerase-associated 2 (human (endogenous in HT-29)) (UniProt Q13087)
T1 sequence: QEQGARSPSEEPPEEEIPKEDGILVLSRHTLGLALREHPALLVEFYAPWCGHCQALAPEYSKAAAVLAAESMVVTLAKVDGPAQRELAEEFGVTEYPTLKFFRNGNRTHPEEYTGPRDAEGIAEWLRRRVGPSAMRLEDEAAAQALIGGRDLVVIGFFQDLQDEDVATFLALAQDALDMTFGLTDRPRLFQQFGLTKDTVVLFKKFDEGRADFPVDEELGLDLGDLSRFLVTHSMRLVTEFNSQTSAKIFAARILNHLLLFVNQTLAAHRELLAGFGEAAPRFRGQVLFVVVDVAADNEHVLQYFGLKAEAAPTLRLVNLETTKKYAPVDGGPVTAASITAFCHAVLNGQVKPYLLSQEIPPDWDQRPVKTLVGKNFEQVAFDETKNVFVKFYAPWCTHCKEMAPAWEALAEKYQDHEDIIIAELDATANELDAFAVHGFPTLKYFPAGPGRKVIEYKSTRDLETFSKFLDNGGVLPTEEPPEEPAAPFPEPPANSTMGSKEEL

B1: CII-30kDa SDHB (protein, UniProt P21912 29-280)
chain: AQTAAATAPRIKKFAIYRWDPDKAGDKPHMQTYEVDLNKCGPMVLDALIKIKNEVDSTLTFRRSCREGICGSCAMNINGGNTLACTRRIDTNLNKVSKIYPLPHMYVIKDLVPDLSNFYAQYKSIEPYLKKKDESQEGKQQYLQSIEEREKLDGLYECILCACCSTSCPSYWWNGDKYLGPAVLMQAYRWMIDSRDDFTEERLAKLQDPFSLYRCHTIMNCTRTCPKGLNPGKAIAEIKKMMATYKEKKASV
B2: DERL1 (protein, UniProt Q9BUN8 1-251)
chain: MSDIGDWFRSIPAITRYWFAATVAVPLVGKLGLISPAYLFLWPEAFLYRFQIWRPITATFYFPVGPGTGFLYLVNLYFLYQYSTRLETGAFDGRPADYLFMLLFNWICIVITGLAMDMQLLMIPLIMSVLYVWAQLNRDMIVSFWFGTRFKACYLPWVILGFNYIIGGSVINELIGNLVGHLYFFLMFRYPMDLGGRNFLSTPQFLYRWLPSRRGGVSGFGVPPASMRRAADQNGGGGRHNWGQGFRLGDQ
B3: HSPBP1 (protein, UniProt Q9NZL4 1-359)
chain: MSDEGSRGSRLPLALPPASQGCSSGGGGGGSSAGGSGNSRPPRNLQGLLQMAITAGSEEPDPPPEPMSEERRQWLQEAMSAAFRGQREEVEQMKSCLRVLSQPMPPTAGEAEQAADQQEREGALELLADLCENMDNAADFCQLSGMHLLVGRYLEAGAAGLRWRAAQLIGTCSQNVAAIQEQVLGLGALRKLLRLLDRDACDTVRVKALFAISCLVREQEAGLLQFLRLDGFSVLMRAMQQQVQKLKVKSAFLLQNLLVGHPEHKGTLCSMGMVQQLVALVRTEHSPFHEHVLGALCSLVTDFPQGVRECREPELGLEELLRHRCQLLQQHEEYQEELEFCEKLLQTCFSSPADDSMDR
B4: DNAJC3 (protein, UniProt Q13217 32-504)
chain: GVNADVEKHLELGKKLLAAGQLADALSQFHAAVDGDPDNYIAYYRRATVFLAMGKSKAALPDLTKVIQLKMDFTAARLQRGHLLLKQGKLDEAEDDFKKVLKSNPSENEEKEAQSQLIKSDEMQRLRSQALNAFGSGDYTAAIAFLDKILEVCVWDAELRELRAECFIKEGEPRKAISDLKAASKLKNDNTEAFYKISTLYYQLGDHELSLSEVRECLKLDQDHKRCFAHYKQVKKLNKLIESAEELIRDGRYTDATSKYESVMKTEPSIAEYTVRSKERICHCFSKDEKPVEAIRVCSEVLQMEPDNVNALKDRAEAYLIEEMYDEAIQDYETAQEHNENDQQIREGLEKAQRLLKQSQKRDYYKILGVKRNAKKQEIIKAYRKLALQWHPDNFQNEEEKKKAEKKFIDIAAAKEVLSDPEMRKKFDDGEDPLDAESQQGGGGNPFHRSWNSWQGFNPFSSGGPFRFKFHFN
B5: PGLS (protein, UniProt O95336 1-258)
chain: MAAPAPGLISVFSSSQELGAALAQLVAQRAACCLAGARARFALGLSGGSLVSMLARELPAAVAPAGPASLARWTLGFCDERLVPFDHAESTYGLYRTHLLSRLPIPESQVITINPELPVEEAAEDYAKKLRQAFQGDSIPVFDLLILGVGPDGHTCSLFPDHPLLQEREKIVAPISDSPKPPPQRVTLTLPVLNAARTVIFVATGEGKAAVLKRILEDQEENPLPAALVQPHTGKLCWFLDEAAARLLTVPFEKHSTL
B6: LMAN1 (protein, UniProt P49257 31-510)
chain: DGVGGDPAVALPHRRFEYKYSFKGPHLVQSDGTVPFWAHAGNAIPSSDQIRVAPSLKSQRGSVWTKTKAAFENWEVEVTFRVTGRGRIGADGLAIWYAENQGLEGPVFGSADLWNGVGIFFDSFDNDGKKNNPAIVIIGNNGQIHYDHQNDGASQALASCQRDFRNKPYPVRAKITYYQNTLTVMINNGFTPDKNDYEFCAKVENMIIPAQGHFGISAATGGLADDHDVLSFLTFQLTEPGKEPPTPDKEISEKEKEKYQEEFEHFQQELDKKKEEFQKGHPDLQGQPAEEIFESVGDRELRQVFEGQNRIHLEIKQLNRQLDMILDEQRRYVSSLTEEISKRGAGMPGQHGQITQQELDTVVKTQHEILRQVNEMKNSMSETVRLVSGMQHPGSAGGVYETTQHFIDIKEHLHIVKRDIDNLVQRNMPSNEKPKCPELPPFPSCLSTVHFIIFVVVQTVLFIGYIMYRSQQEAAAKKFF
B7: ATP5O (protein, UniProt P48047 24-213)
chain: FAKLVRPPVQVYGIEGRYATALYSAASKQNKLEQVEKELLRVAQILKEPKVAASVLNPYVKRSIKVKSLNDITAKERFSPLTTNLINLLAENGRLSNTQGVVSAFSTMMSVHRGEVPCTVTSASPLEEATLSELKTVLKSFLSQGQVLKLEAKTDPSILGGMIVRIGEKYVDMSVKTKIQKLGRAMREIV
B8: HK2 (protein, UniProt P52789 1-917)
chain: MIASHLLAYFFTELNHDQVQKVDQYLYHMRLSDETLLEISKRFRKEMEKGLGATTHPTAAVKMLPTFVRSTPDGTEHGEFLALDLGGTNFRVLWVKVTDNGLQKVEMENQIYAIPEDIMRGSGTQLFDHIAECLANFMDKLQIKDKKLPLGFTFSFPCHQTKLDESFLVSWTKGFKSSGVEGRDVVALIRKAIQRRGDFDIDIVAVVNDTVGTMMTCGYDDHNCEIGLIVGTGSNACYMEEMRHIDMVEGDEGRMCINMEWGAFGDDGSLNDIRTEFDQEIDMGSLNPGKQLFEKMISGMYMGELVRLILVKMAKEELLFGGKLSPELLNTGRFETKDISDIEGEKDGIRKAREVLMRLGLDPTQEDCVATHRICQIVSTRSASLCAATLAAVLQRIKENKGEERLRSTIGVDGSVYKKHPHFAKRLHKTVRRLVPGCDVRFLRSEDGSGKGAAMVTAVAYRLADQHRARQKTLEHLQLSHDQLLEVKRRMKVEMERGLSKETHASAPVKMLPTYVCATPDGTEKGDFLALDLGGTNFRVLLVRVRNGKWGGVEMHNKIYAIPQEVMHGTGDELFDHIVQCIADFLEYMGMKGVSLPLGFTFSFPCQQNSLDESILLKWTKGFKASGCEGEDVVTLLKEAIHRREEFDLDVVAVVNDTVGTMMTCGFEDPHCEVGLIVGTGSNACYMEEMRNVELVEGEEGRMCVNMEWGAFGDNGCLDDFRTEFDVAVDELSLNPGKQRFEKMISGMYLGEIVRNILIDFTKRGLLFRGRISERLKTRGIFETKFLSQIESDCLALLQVRAILQHLGLESTCDDSIIVKEVCTVVARRAAQLCGAGMAAVVDRIRENRGLDALKVTVGVDGTLYKLHPHFAKVMHETVKDLAPKCDVSFLQSEDGSGKGAALITAVACRIREAGQR

Molecular target: T1, protein disulfide isomerase-associated 2 (human (endogenous in HT-29))
Assay: affinity purification with mass spectrometry; HT-29 total cell lysate (600 ug protein) precleared with protein A/G PLUS-agarose, incubated with 4 ug rabbit polyclonal anti-human PDIA2 antibody or rabbit IgG at 4 C overnight; 3 washes with lysis buffer; immune complexes used for proteomic profiling

binding, binds:
ATP6V1B1 (from UniProt P15313 1-513)
ATP6V1E1 (from UniProt P36543 1-226)
CANX (from UniProt P27824 21-592)
DNAJA2 (from UniProt O60884 1-412)
DNAJB1 (from UniProt P25685 1-340)
GAPDHS (from UniProt O14556 1-408)
HSPA4L (from UniProt O95757 1-839)
MT-ND2 (from UniProt P03891 1-347)
NDUFS1 (from UniProt P28331 24-727)
NDUFV1 (from UniProt P49821 21-464)
P4HB (from UniProt P07237 18-508)
TXNDC5 (from UniProt Q8NBS9 33-432)
B1
B2
B3
B4
B5
B6
B7
B8
